As a reminder, the AC50 is the midpoint of the concentration-response curve, whichever way the signal moves.

Our source for the cell number change and AC50 values is PubChem BioAssay AID2685 (National Center for Advancing Translational Sciences (NCATS), 2010).

This experiment in a line: qHTS Assay for Lipid Storage Modulators in Drosophila S3 Cells.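 As to cell number change: cells counted by Cell Tracker Red CMTPX staining in the red channel.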 Conditions: BODIPY lipid droplet fluorescence, 18-24 h; for cell number change: measured here: cell count max response, cells fed with added oleic acid. Put shortly:
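Drosophila S3 cells loaded with oleic acid (400 uM, as added) and compounds at several concentrations; lipid droplets imaged by 488-nm laser-scanning cytometry, 500–530 nm intensity and object ratio to cell channel. Percent activity normalized to 20 uM Triacsin C.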
On the technique in general: Quantitative high-throughput screening tests each substance at several concentrations.

Where [1] appears, read: measured here: lipid fluorescence (Fed channel) AC50, cells fed with added oleic acid.
Where [2] appears, read: measured here: cell number channel AC50, cells fed with added oleic acid.

Some of the results follow. The main result of the screen is listed elsewhere. These columns were measured beside it and carry no call. Most of these compounds were active or inconclusive in the main read-out, so they are no random draw. Potencies come from curve fits of mixed quality, noted in brackets.

Turning to `CCNc1nc(NCc2ccccc2)nc(SCC(=O)Nc2ccccc2)n1`, the cell number change is -28.3%. Besides, under setting [1], the AC50 is 20.6 µM [falling, single point].

`N#Cc1c(N)c2ccccn2c1C(=O)c1ccc(Br)cc1`: the cell number change came out at 31.9%. In addition, the AC50 under setting [2] was 16.4 µM [rising, single point]. Further, the AC50 under setting [1] is 29.1 µM [rising, single point]. For the molecule `COc1ccc(C)cc1NS(=O)(=O)c1ccc2c(c1)n(C)c(=O)n2C`, the cell number change was determined as 10.5%.

As to `CCOC(=O)c1cc(CC)sc1NC(=O)COC(=O)c1ccccn1`, the cell number change is 38%. As for `Cc1ccc(S(=O)(=O)NCC(=O)N(c2ccccc2)C(C(=O)NCc2ccccc2)c2ccco2)cc1` (configuration not stated), the cell number change was determined as 13.2%. Also, the AC50 under setting [1] is 16.4 µM [rising, single point]. For `CC1(C)CC(C)(c2ccc(O)cc2O)N(c2cccc(Cl)c2)C(=S)N1` (configuration not stated), the cell number change was -26.5%. Besides, under setting [1], the AC50 was 29.1 µM [falling, single point].

Take `S=c1[nH]c2cc(Cl)c3cccnc3c2o1`: the cell number change turned out to be 9.12%. Regarding `CCCCOCC1CC(CC#CCN2CCCCC2)C(=O)O1` (configuration not stated), the cell number change is -21.2%. In addition, under setting [1], the AC50 is 20.6 µM [falling, single point]. For `Cc1ccc(OCC(=O)N2N=C(C(F)(F)F)CC2(O)C(C)(C)C)cc1C` (configuration not stated), the cell number change is -61.2%. Under setting [1], the AC50 was 0.259 µM [falling, full curve, poor fit]. As for `CCOC(=O)C1(Cc2cccc(Cl)c2)CCCN(C(=O)c2cc(C)[nH]n2)C1` (configuration not stated), the cell number change is 5.2%. Besides, the AC50 under setting [1] is 0.00517 µM [falling, full curve, poor fit]. For the molecule `COc1ccc(C(=O)COC(=O)c2c(-c3ccccc3)noc2C)c(OC)c1`, the AC50 under setting [2] was 4.61 µM [rising, single point]. In the case of `COc1ccc(/C=N/Nc2ncnc3scc(-c4ccccc4)c23)cc1OC`, the cell number change was -5.13%. Also, the AC50 under setting [1] is 0.517 µM [rising, full curve].

For the molecule `O=C(NNc1ccc(Cl)cc1)c1sccc1Cl`, the cell number change stood at 2.38%. Under setting [2], the AC50 is 0.146 µM [falling, full curve, poor fit].

Take `Cc1cccc(NC(=O)Nc2cccc(F)c2)n1`: the AC50 under setting [1] is 0.058 µM [rising, full curve, poor fit]. For `Cc1c(C(=O)OCC(=O)N2CCCCC2C)oc2ccccc12` (configuration not stated), the cell number change is -31.2%. For the same molecule, the AC50 under setting [2] was 0.184 µM [falling, full curve, poor fit]. For the same molecule, under setting [1], the half-maximal activity concentration (AC50) is 0.461 µM [falling, partial curve].

Consider `CCc1ccc(N2C(=O)C3C4CCC(C4=C(C)C)C3C2=O)cc1` (configuration not stated), for which the cell number change was -8.04%. In addition, the AC50 under setting [1] was 0.00517 µM [rising, full curve, poor fit]. Consider `COc1ccc(NC(C)=O)cc1NC(=O)CSc1nnc(-c2ccccn2)n1C`, for which the cell number change was determined as 20.4%. In addition, the AC50 under setting [1] was 13 µM [rising, partial curve]. Regarding `Nc1nccnc1C(=O)OCC(=O)C12CC3CC(CC(C3)C1)C2`, the cell number change was -29.7%. Besides, the AC50 under setting [1] was 5.8 µM [falling, full curve].

Consider `COc1ccc(NC(=O)c2c(-c3c(Cl)cccc3Cl)noc2C)c(OC)c1`, for which the cell number change is 14.3%. In the case of `Cc1cc(=O)oc2cc(OCC(O)CN3CCN(c4ccc(F)cc4)CC3)ccc12` (configuration not stated), the cell number change was -0.524%.

Turning to `CC(C)C(NC(=O)c1ccc(F)cc1)C(=O)NCC1CCCO1` (configuration not stated), the cell number change is -53.8%. Besides, the AC50 under setting [2] is 29.1 µM [falling, single point].

For `CCCCOc1ccc2c(c1)C(=O)c1cc(O)ccc1-2`, the cell number change is -23.7%. Further, under setting [1], the AC50 is 29.1 µM [falling, single point].

With `COC(=O)Nc1ccc(S(=O)(=O)N2CCC(C(=O)N3CCC(C)CC3)CC2)cc1`, the cell number change turned out to be 17.2%. The AC50 under setting [2] was 0.651 µM [rising, single point]. The AC50 under setting [1] was 0.366 µM [rising, single point].

For the molecule `O=C(NCCc1ccccc1)/C(=C\c1ccc([N+](=O)[O-])cc1)NC(=O)c1ccc(Br)cc1`, the cell number change was -0.548%. In addition, the AC50 under setting [1] is 0.291 µM [rising, single point]. Take `CCOc1ccc(CCNC(=O)COC(=O)c2sccc2C)cc1OCC`: the cell number change was -65.9%. Under setting [2], the AC50 was 1.16 µM [falling, full curve]. The concentration at half-maximal activity (AC50) under setting [1] is 16.4 µM [falling, partial curve]. For `Cc1cc(-c2csc(N)n2)c(C)n1Cc1ccco1`, the cell number change worked out at 68.5%. In addition, the half-maximal activity concentration (AC50) under setting [1] is 5.8 µM [falling, single point].

Consider `CCOC(=O)CNc1nnc(SCC(=O)OCC)[nH]c1=O`, for which the cell number change was -23.4%. As for `COc1ccc(C(=O)CSc2ncn[nH]2)cc1OC`, the cell number change is -5.1%.

As for `O=C(C1CCOCC1)N1CCCC(N2CCN(c3ccc(F)cc3)CC2)C1` (configuration not stated), the AC50 under setting [1] is 29.1 µM [rising, single point]. As for `COc1cccc(CNC(=O)C2CCN(S(=O)(=O)c3ccc4c(c3)CC(C)N4C(=O)C3CC3)CC2)c1` (configuration not stated), the cell number change is 2.09%. Also, the AC50 under setting [1] was 0.651 µM [rising, full curve]. With `Cc1ccc(S(=O)(=O)N2CCC(C(=O)OCC(=O)N3CCCCC3C)CC2)cc1C` (configuration not stated), the cell number change is -28.4%. The AC50 under setting [2] was 0.58 µM [falling, full curve, poor fit]. Further, under setting [1], the AC50 is 20.6 µM [falling, partial curve]. Turning to `O=C(CCC1CCCN(C(=O)c2ccc3c(c2)OCO3)C1)NCc1ccc(F)c(F)c1` (configuration not stated), the cell number change was -50.6%. Under setting [2], the AC50 is 1.46 µM [falling, full curve]. The AC50 under setting [1] was 23.1 µM [falling, partial curve]. On to `Cc1ccc(C(=O)c2coc3ccc(O)c(CN4CCN(C)CC4)c23)cc1`, for which the cell number change is -22.5%. In addition, the AC50 under setting [1] was 0.116 µM [rising, full curve]. For `Cc1ccc(C)c(S(=O)(=O)N2CCCCC2CCNC(=O)C(=O)NC2CC2)c1` (configuration not stated), the cell number change is -8.09%. Further, under setting [1], the AC50 is 20.6 µM [falling, single point]. Regarding `O=C(Nc1cccc(S(=O)(=O)N2CCCCC2)c1)c1ccccc1NS(=O)(=O)c1ccc(F)cc1`, the cell number change is -31%. Moreover, the AC50 under setting [2] was 16.4 µM [falling, single point]. Further, the half-maximal activity concentration (AC50) under setting [1] was 14.6 µM [falling, partial curve].

On to `O=C(CSc1ccccc1)NCCSCc1ccccc1`, for which the cell number change was 5.26%. With `COC(=O)c1ccc(NC(=O)c2ccccc2CC[N+](=O)[O-])cc1`, the cell number change was found to be 50.1%. For the same molecule, the AC50 under setting [2] was 16.4 µM [rising, partial curve].

`NC(=O)C1CCN(C(=O)C2CC(=O)N(c3ccc4c(c3)OCCO4)C2)CC1` (configuration not stated): the cell number change is -23.5%. Besides, the AC50 under setting [1] was 0.731 µM [falling, full curve].

With `COc1ccc(-c2nc(CS(=O)CC(=O)NCCCN3CCCC(C)C3)c(C)o2)cc1OC` (configuration not stated), the cell number change worked out at 1.52%. Also, the AC50 under setting [1] is 20.6 µM [rising, partial curve, poor fit]. For the molecule `N/C(=N\OC(=O)c1cccc2ccccc12)c1ccc(Br)cc1`, the concentration at half-maximal activity (AC50) under setting [1] is 29.1 µM [falling, single point]. For the molecule `CCc1ccc(-c2cc3c(=O)n(CC(=O)N4CCCC4)nc(C)n3n2)cc1`, the cell number change is 29.6%. Also, the AC50 under setting [1] was 14.6 µM [rising, partial curve]. As for `COC(=O)COc1ccc(=O)n(-c2ccccc2)n1`, the cell number change was -27.5%. The AC50 under setting [1] was 18.4 µM [falling, partial curve]. On to `N#CC1(NC(=O)CN2C(=O)c3ccc([N+](=O)[O-])cc3C2=O)CCCCC1`, for which the AC50 under setting [1] was 6.51 µM [falling, single point]. For `CCN(CC)C(=O)C1CCCN(Cc2ccc(F)c(F)c2)C1` (configuration not stated), the cell number change is 3.44%. Besides, under setting [1], the AC50 was 29.1 µM [rising, single point].

Consider `NC(=O)COC(=O)c1cccc(S(=O)(=O)N2CCN(c3ccccc3)CC2)c1`, for which the cell number change was -21.7%.

For the molecule `CCOC(=O)C1(N(CC)CC)Sc2cc(C)ccc2NC1=O` (configuration not stated), the cell number change is -45.4%. Also, the AC50 under setting [2] is 20.6 µM [falling, single point]. In addition, the AC50 under setting [1] was 29.1 µM [falling, single point]. In the case of `COc1ccccc1C1CCN(Cc2ccc(Cl)c(Cl)c2)CC1`, the cell number change was -48.2%. In addition, the AC50 under setting [2] is 16.4 µM [falling, single point]. For the molecule `COCCN(CC(=O)Nc1ccccc1C(F)(F)F)C(=O)c1ccc(-n2cccn2)cc1`, the cell number change is 14.7%. For the molecule `Cn1c(CNC(=O)CNC(=O)Cc2ccc(Cl)cc2)cc(=O)n(C)c1=O`, the cell number change worked out at 24.5%. Besides, under setting [1], the AC50 is 29.1 µM [rising, single point]. Consider `Cc1nnc(NC(=O)c2ccc(S(=O)(=O)C(F)F)cc2)s1`, for which the cell number change is -14.4%. In addition, the AC50 under setting [1] is 4.11 µM [falling, full curve, poor fit]. Regarding `CSc1cccc(NS(=O)(=O)c2cccs2)c1`, the AC50 is 0.651 µM [falling, partial curve, poor fit] under setting [2] and 0.651 µM [falling, full curve] under setting [1].

Take `CC1CN(CCCCOc2ccc3ccccc3c2)CC(C)O1` (configuration not stated): the cell number change was -61.2%. Also, under setting [2], the AC50 was 29.1 µM [falling, single point]. Consider `O=C(CNC(=O)N1CC(=O)Nc2ccccc21)NCCc1c[nH]c2ccccc12`, for which the cell number change stood at 16.7%.

Regarding `Cc1cccc(C(=O)NNC(=O)C23CC4CC(CC(C4)C2)C3)c1O`, the cell number change is -0.833%. Moreover, the AC50 under setting [1] was 0.461 µM [falling, full curve]. For `Cc1cc(C)cc(Nc2ncnc3nc[nH]c23)c1`, the cell number change came to 29.7%. Besides, under setting [1], the AC50 was 29.1 µM [rising, single point].

Turning to `Cc1cc(C)c(NC(=O)COC(=O)c2cccc3c2C(=O)c2ccccc2C3=O)c(C)c1`, the cell number change turned out to be 7.01%. Moreover, the AC50 under setting [1] was 6.51 µM [rising, single point]. For `Cc1ccc(NC(=O)c2oc3ccc(S(=O)(=O)N4CCC5(CC4)OCCO5)cc3c2C)cc1C`, the cell number change stood at 9.32%. For the same molecule, the AC50 under setting [1] is 14.6 µM [rising, partial curve, poor fit]. In the case of `CC(=O)Nc1ccc(NC(=O)Cc2ccc(-c3ccccc3)cc2)cc1`, the cell number change is -10.6%. Turning to `O=C(NC1(O)C(=O)c2ccccc2C1=O)c1c(Cl)cccc1Cl`, the cell number change was -15.6%. The half-maximal activity concentration (AC50) under setting [1] is 0.0058 µM [falling, full curve, poor fit]. As for `COc1ccc(/C=C(/NC(=O)c2cccs2)C(=O)Nc2ccc(C)cc2)cc1OC`, the cell number change was -82.9%. The AC50 under setting [2] is 2.31 µM [falling, full curve]. For the same molecule, under setting [1], the AC50 is 0.326 µM [falling, full curve].

Turning to `Cc1cccc(C)c1OCCCCCNCCO`, the cell number change is -12.3%. `CC(=O)c1cccc(NC(=S)NC(=O)c2cncc(Br)c2)c1`: the cell number change is -22%. Besides, the AC50 under setting [1] was 25.9 µM [falling, partial curve, poor fit]. `O=C(COc1ccccc1)N1CCN(c2nnc(-c3ccccc3)c3ccccc23)CC1`: the cell number change was -2.35%. In addition, under setting [1], the AC50 is 3.26 µM [rising, full curve, poor fit].
